No constants are given. Whether binding was seen depends on the method and setting. Some entries that bind do so weakly or less than the wild type.
How the values were obtained:
[1] = molecular target: biotinylated β-galactosidase (Pierce Chemical, 29939) [β-galactosidase: P00722]; assay: avidin immobilized in hydrogel spots, treated with biotinylated β-galactosidase (legend of FIG. 10)
[2] = molecular target: biotinylated β-galactosidase (Pierce Chemical, 29939) [β-galactosidase: P00722]; assay: avidin immobilized in hydrogel spots, treated with 0.2 U/ml biotinylated β-galactosidase; bound enzyme detected by hydrolysis of fluorescent substrate C12FDG

Sequences of proteins named here, by UniProt entry; tags and fusion partners are left off. Residues count along the entry.
UniProt P02701, residues 25-152: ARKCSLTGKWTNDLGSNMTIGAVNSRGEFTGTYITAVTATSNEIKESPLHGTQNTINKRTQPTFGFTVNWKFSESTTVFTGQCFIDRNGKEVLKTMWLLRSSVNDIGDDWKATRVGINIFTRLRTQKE

binding [1]: binds
binding [2]: binds
Substance: avidin (NeutrAvidin, Pierce Chemical Company, catalog number 31000) (from UniProt P02701 25-152)
